Laboratory results reported in the supplement of paper PMC4604168 (melanoma cell lines).
The list shows a part of the results. Single values are uncertain, as repeats are few or missing.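 Cells were imaged in 1,536-well plates, and nuclei stained with an antibody against cleaved PARP were counted against all DNA-stained nuclei to give the apoptosis fraction. Screening doses were chosen to leave most cells alive, and resting and induced cleaved-PARP levels differ strongly between cell lines.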

Legend:
Experiment in all cases: cleaved PARP positive nuclei fraction relative to DMSO control; melanoma cells; higher = more apoptosis
Details in all cases: library dose: low library concentration; 72 h
MZ2-MEL = system: MZ2-MEL
MeWo = system: MeWo
RPMI7951 = system: RPMI7951
RVH-421 = system: RVH-421
SkMel28 = system: SkMel28
SkMel2 = system: SkMel2
SkMel30 = system: SkMel30
UACC62 = system: UACC62
WM115 = system: WM115
WM1716 = system: WM1716
WM1745 = system: WM1745
WM3526 = system: WM3526
WM3619 = system: WM3619
WM451Lu = system: WM451Lu
SkMel5 = system: SkMel5
UACC257 = system: UACC257

Row | SMILES | cleaved PARP positive nuclei fraction (MZ2-MEL) | cleaved PARP positive nuclei fraction (MeWo) | cleaved PARP positive nuclei fraction (RPMI7951) | cleaved PARP positive nuclei fraction (RVH-421) | cleaved PARP positive nuclei fraction (SkMel28) | cleaved PARP positive nuclei fraction (SkMel2) | cleaved PARP positive nuclei fraction (SkMel30) | cleaved PARP positive nuclei fraction (UACC62) | cleaved PARP positive nuclei fraction (WM115) | cleaved PARP positive nuclei fraction (WM1716) | cleaved PARP positive nuclei fraction (WM1745) | cleaved PARP positive nuclei fraction (WM3526) | cleaved PARP positive nuclei fraction (WM3619) | cleaved PARP positive nuclei fraction (WM451Lu) | cleaved PARP positive nuclei fraction (SkMel5) | cleaved PARP positive nuclei fraction (UACC257)
1 | O=C(O)c1ccc2c(c1)nc(Nc1cccc(Cl)c1)c1ccncc12 + Nc1cccc2c1CN(C1CCC(=O)NC1=O)C2=O [lenalidomide] (first compound 0.4 µM, partner dose 1 µM) | 114% | 135% | 91.4% | 183% | 169% | 154% | 164% | 39.1% | 105% | 78.7% | 90.4% | 80.1% | 93.8% | 30.5% | – | –
2 | CO[C@H]1C[C@@H]2CC[C@@H](C)[C@@](O)(O2)C(=O)C(=O)N2CCCC[C@H]2C(=O)O[C@H]([C@H](C)C[C@@H]2CC[C@@H](OCCO)[C@H](OC)C2)CC(=O)[C@H](C)/C=C(\C)[C@@H](O)[C@@H](OC)C(=O)[C@H](C)C[C@H](C)/C=C/C=C/C=C/1C [everolimus] + COc1ccc2c(c1)CCC1C2CCC2(C)C(NCCCCCCN3C(=O)C=CC3=O)CCC12 [U73122] (first compound 0.02 µM, partner dose 0.4 µM) | 134% | 121% | 44.6% | 115% | 506% | – | 397% | 352% | 41% | 206% | 94% | 145% | 191% | 87.1% | 73.5% | 34.9%
3 | Nc1ccn([C@@H]2O[C@H](CO)[C@@H](O)C2(F)F)c(=O)n1 [gemcitabine] + CC(=O)c1c(C)c2cnc(Nc3ccc(N4CCNCC4)cn3)nc2n(C2CCCC2)c1=O [palbociclib] (first compound 0.0004 µM, partner dose 0.04 µM) | 129% | 34.2% | 239% | 47.3% | 45.8% | 101% | 157% | 49.5% | 44% | 25.9% | 126% | 43% | 111% | 35.1% | – | –
4 | Nc1ncn([C@H]2C[C@H](O)[C@@H](CO)O2)c(=O)n1 [decitabine] + COCC[n+]1c2c(n(Cc3cnccn3)c1C)C(=O)c1ccccc1C2=O [YM155] (first compound 0.1 µM, partner dose 0.0004 µM) | 200% | 130% | 159% | 123% | 102% | 109% | 200% | 101% | 261% | 110% | 105% | 25.9% | 114% | 105% | – | –
5 | CCCS(=O)(=O)Nc1ccc(F)c(C(=O)c2c[nH]c3ncc(Cl)cc23)c1F + Cn1c(Nc2ccc(C(F)(F)F)cc2)nc2cc(Oc3ccnc(-c4ncc(C(F)(F)F)[nH]4)c3)ccc21 [CHIR265] (first compound 0.08 µM, partner dose 0.08 µM) | 181% | 105% | 47.3% | 76.9% | 271% | 215% | 75.5% | 84.8% | 505% | 180% | 128% | 79.4% | 103% | 48.7% | – | –
6 | Cc1cc(Nc2cc(N3CCN(C)CC3)nc(/C=C/c3ccccc3)n2)n[nH]1 + CCCS(=O)(=O)Nc1ccc(F)c(C(=O)c2c[nH]c3ncc(Cl)cc23)c1F [PLX4720] (first compound 0.04 µM, partner dose 0.08 µM) | 81.6% | 91.3% | 130% | 134% | 100% | 112% | 25.5% | 84.3% | 62.1% | 29.1% | 87.6% | 113% | 89.7% | 79.1% | – | –
7 | Nc1nc(F)nc2c1ncn2[C@@H]1O[C@H](CO)[C@@H](O)[C@@H]1O [fludarabine] + Clc1ccc(Nc2nnc(Cc3ccncc3)c3ccccc23)cc1 [vatalanib] (first compound 0.2 µM, partner dose 2 µM) | 93.5% | 833% | 96.3% | 71.6% | 246% | 617% | 4840% | 64.6% | 124% | 14.1% | 101% | 620% | 103% | 520% | – | –
8 | O=C(O)[C@@H]1[O][Sb](=[O])([O][Sb]2(=[O])[O][C@H]([C@H](O)CO)[C@H](O)[C@H](C(=O)O)[O]2)[O][C@H]([C@H](O)CO)[C@@H]1O (some centres undefined) [stibogluconate] + C=C(c1ccc(C(=O)O)cc1)c1cc2c(cc1C)C(C)(C)CCC2(C)C [Bexarotene] (first compound 2 µM, partner dose 2 µM) | 104% | 96.2% | 121% | 280% | 101% | 156% | 106% | 219% | 66.8% | 53.8% | 119% | 127% | 93% | 55.7% | – | –
9 | CO[C@H]1C[C@@H]2CC[C@@H](C)[C@@](O)(O2)C(=O)C(=O)N2CCCC[C@H]2C(=O)O[C@H]([C@H](C)C[C@@H]2CC[C@@H](OCCO)[C@H](OC)C2)CC(=O)[C@H](C)/C=C(\C)[C@@H](O)[C@@H](OC)C(=O)[C@H](C)C[C@H](C)/C=C/C=C/C=C/1C [everolimus] + O=c1cc(-c2cccc3c2Sc2ccccc2S3)oc(N2CCOCC2)c1 [KU55933] (first compound 0.02 µM, partner dose 1 µM) | 339% | 57.4% | 109% | 146% | 280% | – | 140% | 282% | 126% | 69.3% | 98.2% | 48.9% | 109% | 414% | 110% | 135%
10 | Nc1ncn([C@H]2C[C@H](O)[C@@H](CO)O2)c(=O)n1 [decitabine] + Cn1nnc2c(C(N)=O)ncn2c1=O [temozolomide] (first compound 0.1 µM, partner dose 2 µM) | 61.3% | 162% | 124% | 53.6% | 88.1% | 82.6% | 67.9% | 107% | 55.6% | 76.9% | 76.2% | 129% | 134% | 368% | – | –
11 | Cn1c(=O)n(-c2ccc(C(C)(C)C#N)cc2)c2c3cc(-c4cnc5ccccc5c4)ccc3ncc21 + Nc1ccn([C@@H]2O[C@H](CO)[C@@H](O)C2(F)F)c(=O)n1 [gemcitabine] (first compound 0.004 µM, partner dose 0.0004 µM) | 87.7% | 106% | 108% | 126% | 95.5% | 73.7% | 64.9% | 401% | 152% | 71.4% | 119% | 58.5% | 130% | 91.7% | – | –
12 | C=C(c1ccc(C(=O)O)cc1)c1cc2c(cc1C)C(C)(C)CCC2(C)C [Bexarotene] + Nc1cccc2c1CN(C1CCC(=O)NC1=O)C2=O [lenalidomide] (first compound 2 µM, partner dose 1 µM) | 128% | 149% | 124% | 226% | 182% | 79.3% | 67.2% | 34.4% | 36.9% | 78.5% | 104% | 41% | 75.6% | 108% | – | –
13 | CS(=O)(=O)CCNCc1ccc(-c2ccc3ncnc(Nc4ccc(OCc5cccc(F)c5)c(Cl)c4)c3c2)o1 [lapatinib] + Nc1ncn([C@H]2C[C@H](O)[C@@H](CO)O2)c(=O)n1 [decitabine] (first compound 0.8 µM, partner dose 0.1 µM) | 135% | 77.3% | 123% | 108% | 47.7% | 191% | 97.5% | 83.5% | 72.6% | 75.4% | 88.4% | 38.4% | 108% | 36.8% | – | –
14 | CNC(=O)c1cc(Oc2ccc(NC(=O)Nc3ccc(Cl)c(C(F)(F)F)c3)cc2)ccn1 [sorafenib] + Nc1cccc2c1CN(C1CCC(=O)NC1=O)C2=O [lenalidomide] (first compound 0.4 µM, partner dose 1 µM) | 41.5% | 145% | 64.9% | 73.6% | 210% | 127% | 33.2% | 49.2% | 128% | 168% | 110% | 143% | 98.4% | 114% | – | –
15 | Cc1cc(Nc2cc(N3CCN(C)CC3)nc(/C=C/c3ccccc3)n2)n[nH]1 + O=C(O)c1ccc2c(c1)nc(Nc1cccc(Cl)c1)c1ccncc12 [CX4945] (first compound 0.04 µM, partner dose 0.4 µM) | 135% | 118% | 256% | 128% | 78% | 7360% | 42.6% | 55.2% | 79% | 301% | 109% | 88.8% | 84.8% | 104% | – | –
16 | O=C(O)c1ccc2c(c1)nc(Nc1cccc(Cl)c1)c1ccncc12 + COCC[n+]1c2c(n(Cc3cnccn3)c1C)C(=O)c1ccccc1C2=O [YM155] (first compound 0.4 µM, partner dose 0.0004 µM) | 135% | 93.7% | 93.9% | 38.3% | 87.7% | 141% | 193% | 139% | 198% | 141% | 80.7% | 117% | 89.1% | 125% | – | –
17 | Cc1cc(Nc2cc(N3CCN(C)CC3)nc(/C=C/c3ccccc3)n2)n[nH]1 + CNC(=O)c1cc(Oc2ccc(NC(=O)Nc3ccc(Cl)c(C(F)(F)F)c3)cc2)ccn1 [sorafenib] (first compound 0.04 µM, partner dose 0.4 µM) | 130% | 103% | 88.7% | 49.7% | 76.7% | 127% | 22.4% | 93.5% | 119% | 77% | 121% | 388% | 105% | 69.9% | – | –
18 | CC(C)C[C@H](NC(=O)[C@H](Cc1ccccc1)NC(=O)c1cnccn1)B(O)O [Bortezomib] + CNC(=O)c1cc(Oc2ccc(NC(=O)Nc3ccc(Cl)c(C(F)(F)F)c3)cc2)ccn1 [sorafenib] (first compound 0.001 µM, partner dose 0.4 µM) | 101% | 144% | 331% | 211% | 57% | 49.1% | 94.9% | 165% | 113% | 662% | 208% | 104% | 503% | 53.5% | – | –

Some entries already given, showing only cleaved PARP positive nuclei fraction (UACC257), cleaved PARP positive nuclei fraction (UACC62) and cleaved PARP positive nuclei fraction (MZ2-MEL).
Row	SMILES	cleaved PARP positive nuclei fraction (UACC257)	cleaved PARP positive nuclei fraction (UACC62)	cleaved PARP positive nuclei fraction (MZ2-MEL)
1	O=C(O)c1ccc2c(c1)nc(Nc1cccc(Cl)c1)c1ccncc12 + Nc1cccc2c1CN(C1CCC(=O)NC1=O)C2=O [lenalidomide] (first compound 0.4 µM, partner dose 1 µM)	–	39.1%	114%
2	CO[C@H]1C[C@@H]2CC[C@@H](C)[C@@](O)(O2)C(=O)C(=O)N2CCCC[C@H]2C(=O)O[C@H]([C@H](C)C[C@@H]2CC[C@@H](OCCO)[C@H](OC)C2)CC(=O)[C@H](C)/C=C(\C)[C@@H](O)[C@@H](OC)C(=O)[C@H](C)C[C@H](C)/C=C/C=C/C=C/1C [everolimus] + COc1ccc2c(c1)CCC1C2CCC2(C)C(NCCCCCCN3C(=O)C=CC3=O)CCC12 [U73122] (first compound 0.02 µM, partner dose 0.4 µM)	34.9%	352%	134%
